Assay results taken from PubChem BioAssay AID504467 (National Center for Advancing Translational Sciences (NCATS), 2011).
The campaign covered roughly 330,000 compounds. About 7,700 (2.3%) were called active. This list was built around the results that the source calls inconclusive (neither active nor inactive); the mix of calls is not that of the screen. Calls come from the whole dose curve; as a rule, active = well fitted inhibition curve with a large enough effect; inconclusive = small, poorly fitted or top-dose-only effect, or effect the other way; inactive = flat fitted curve, though single readings scatter. Potencies beside an inconclusive call are fits to weak or partial responses and may not hold up.

Assay: qHTS screen for small molecules that inhibit ELG1-dependent DNA repair in human embryonic kidney (HEK293T) cells expressing luciferase-tagged ELG1; note: nearly all actives have a fitted effect of over 55% in size
Details: HEK293T ELG1-luciferase reporter, luminescence, 16 h, DNA damage induced by 5-fluorouridine; series mostly up to 46.1 µM
Outline: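 Step one: seed 2,000 cells per well. Step two: pin-transfer compound or DMSO alongside 5-fluorouridine. Step three: incubate 16 hr, 37 °C, 5% CO2. Step four: add ONE-Glo, wait 30 min, read luminescence.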
Potency is the fitted concentration of half-maximal effect.

| Structure (SMILES) | Potency |
| --- | --- |
| O=C(N1CCOCC1)N1CCN(c2ccccc2F)CC1 | inconclusive: 20.6 µM [activator, partial curve, poor fit] |
| CC(Sc1ccccc1)C(=O)NN=C1CCCCCCC1 (centres undefined) | inactive |
| CCOC(=O)c1c(C)[nH]c(C)c1C(=O)COC(=O)/C=C/c1ccc(OC(F)F)cc1 | inconclusive: 29.1 µM [inhibitor, single point] |
| COc1ccc(OC(C)C(=O)N(C)Cc2nc(-c3cccc(C)c3)no2)cc1 (centres undefined) | inconclusive: 18.3 µM [inhibitor, partial curve] |
| CCCCn1c(N)c(N(CCC(C)C)C(=O)CC2OC(=O)c3ccccc32)c(=O)[nH]c1=O (centres undefined) | inconclusive: 18.3 µM [inhibitor, partial curve, poor fit] |
| COc1ccc(C(C)NCCC(c2ccc(OC(C)C)cc2)c2ccccc2OC)cc1 (centres undefined) | inconclusive: 20.6 µM [inhibitor, single point] |
| COc1ccc(NC2=CC(c3ccc(OC)c(OC)c3)N(c3ccc(OC)cc3)C2=O)cc1 (centres undefined) | inconclusive: 18.4 µM [inhibitor, single point] |
| CC(=O)c1cccc(NC(=O)c2ccc(N(C)S(=O)(=O)c3ccc(C)cc3)cc2)c1 | active: 16.4 µM |
| NS(=O)(=O)c1ccc(NC(=O)CSc2nnc(-c3ccc(O)cc3)o2)cc1 | inconclusive: 9.2 µM [activator, partial curve, poor fit] |
| COC(=O)c1ccc(Cl)c(NC(=O)CN(c2ccc3c(c2)OCO3)S(C)(=O)=O)c1 | inconclusive: 10.3 µM [inhibitor, partial curve, poor fit] |
| OCCNCc1cc(Br)ccc1OCc1ccc(Cl)cc1 | inactive |
| O=S(=O)(c1ccccc1)N1CCN(CCO)CC1 | inactive |
| CCCC(=O)Nc1c(C(=O)OCC)[nH]c2ccccc12 | inconclusive: 29.1 µM [inhibitor, single point] |
| O=c1oc(/C=C/c2ccccc2)nc2sc3c(c12)CCC3 | inconclusive: 16.4 µM [activator, partial curve] |
| COCCn1c(SCC(=O)Nc2nnc(C)s2)nnc1-c1ccco1 | inconclusive: 32.6 µM [inhibitor, single point] |
| Cc1nc(NC(=O)c2ccccc2)sc1-c1csc(Nc2ccc(C(=O)O)cc2)n1 | inconclusive: 29.1 µM [inhibitor, single point] |
| Cc1cc(C)n(CC(=O)Nc2ccc3c(c2)OCO3)c(=O)c1C#N | inactive |
| CCCN(C(=O)c1ccco1)c1nnc(-c2cccc(C)c2)s1 | inactive |
| Cn1ccnc1SCC(=O)c1ccc2ccccc2c1 | inconclusive: 16.4 µM [activator, partial curve] |
| COc1ccc(CNC(=S)NC2CCCC2)cc1 | inactive |
| COc1ccc(C)cc1N(C(=O)c1ccc(C#N)cc1)C1=NC(C)(C)CS1 | inactive |
| COc1cccc2[nH]c(=O)c(-c3ccccc3)cc12 | inconclusive: 7.3 µM [activator, partial curve] |
| O=C(Nc1ccc(F)cc1)c1ccc2c(=O)n3c(nc2c1)CCCCC3 | inconclusive: 1.83 µM [activator, partial curve, poor fit] |

Fetched one by one from above (six):

| Structure (SMILES) | Potency |
| --- | --- |
| CCCCn1c(N)c(N(CCC(C)C)C(=O)CC2OC(=O)c3ccccc32)c(=O)[nH]c1=O (centres undefined) | inconclusive: 18.3 µM [inhibitor, partial curve, poor fit] |
| CCCN(C(=O)c1ccco1)c1nnc(-c2cccc(C)c2)s1 | inactive |
| COc1ccc(NC2=CC(c3ccc(OC)c(OC)c3)N(c3ccc(OC)cc3)C2=O)cc1 (centres undefined) | inconclusive: 18.4 µM [inhibitor, single point] |
| CCOC(=O)c1c(C)[nH]c(C)c1C(=O)COC(=O)/C=C/c1ccc(OC(F)F)cc1 | inconclusive: 29.1 µM [inhibitor, single point] |
| Cc1cc(C)n(CC(=O)Nc2ccc3c(c2)OCO3)c(=O)c1C#N | inactive |
| OCCNCc1cc(Br)ccc1OCc1ccc(Cl)cc1 | inactive |

Further entries.

| Structure (SMILES) | Potency |
| --- | --- |
| COc1ccccc1-c1noc(-c2cc(OC)c(OC)c(OC)c2)n1 | active: 11.6 µM |
| Cc1cccc(OCCNc2cc(N3CCN(C)CC3)ccc2[N+](=O)[O-])c1 | inactive |
| Cc1ccc(/C=C/C(=O)c2ccc(O)cc2)cc1 | inconclusive: 18.3 µM [activator, single point] |
| COc1ccc(-c2csc(NC(=O)CSCc3c(C)noc3C)n2)c(OC)c1 | inconclusive: 23.1 µM [inhibitor, single point] |
| Cc1ccc(C(=O)NCC(c2ccc(F)cc2)N2CCOCC2)s1 (centres undefined) | inconclusive: 20.6 µM [activator, single point] |
| COc1cccc(CC(=O)OCC(=O)NC(=O)c2ccc(OC(F)F)cc2)c1 | inconclusive: 23.1 µM [activator, single point] |
| Cc1ccccc1S(=O)(=O)/N=C(/Nc1nc2ccccc2s1)c1ccccc1 | inconclusive: 3.26 µM [activator, partial curve] |
| CCOc1ccccc1NC(=O)CCc1c(C)nn(-c2ccc(N3CCCCC3)nn2)c1C | inconclusive: 20.6 µM [inhibitor, single point] |
| Cc1ccc(SCCSc2nc(C)cc(=O)[nH]2)cc1 | inconclusive: 18.3 µM [activator, partial curve] |
| O=[N+]([O-])c1cccc(-c2ccc(SCc3ccccn3)nn2)c1 | inconclusive: 13 µM [activator, partial curve] |
| Cc1nn2c(nc1=O)SCC(c1ccccc1)=N2 | inconclusive: 10 µM [activator, partial curve] |
| CCC(=O)Nc1ccc(C(=O)COC(=O)c2sc(C)nc2C)cc1 | inactive |
| CCOc1cccc(-c2c(C(=O)N/N=C/c3ccc(C)o3)nnn2-c2nonc2N)c1 | inactive |
| Cc1nn(C)c(C)c1/C=C/C(=O)c1ccc(Cl)cc1Cl | active: 4.11 µM |
| CC[N+](C)(C)CC/C=C1/c2ccccc2Sc2ccc(Cl)cc21 | inactive |
| O=C(Nc1ccc(Cl)c(S(=O)(=O)N2CCCCC2)c1)c1cccnc1 | inconclusive: 23.1 µM [inhibitor, single point] |
| CCC(CC)NC(=O)c1cc(S(=O)(=O)N2CCCCC2)ccc1N1CCOCC1 | inconclusive: 0.206 µM [inhibitor, single point] |
| Oc1ccccc1/C=N/NC1=NCCCCC1 | inconclusive: 2.31 µM [activator, full curve] |
| CCS(=O)(=O)c1nc(S(=O)(=O)c2ccc(C)cc2)c(NCCCn2ccnc2)s1 | inconclusive: 13 µM [activator, partial curve, poor fit] |
| Cc1ccc(S(=O)(=O)N/N=C/c2ccc(O)cc2O)cc1[N+](=O)[O-] | inconclusive: 23.1 µM [activator, partial curve, poor fit] |
| CCOc1ncccc1C(=O)N1CCN(C(c2ccccc2)c2ccccc2)CC1 | inconclusive: 16.4 µM [inhibitor, partial curve] |
| Cc1noc(C)c1S(=O)(=O)N1CCCC(C(=O)c2cccc(OC(C)C)c2)C1 (centres undefined) | inconclusive: 29.1 µM [inhibitor, single point] |
| CN(C(=O)COC(=O)c1n[nH]c2ccccc12)c1ccccc1 | inconclusive: 20.6 µM [activator, partial curve] |

| Structure (SMILES) | Potency |
| --- | --- |
| O=C(COc1c(Br)cc(Br)cc1Br)N/N=C/c1ccco1 | inconclusive: 20.6 µM [activator, single point] |
| COc1ccccc1C(=O)OCc1nc(N)nc(Nc2ccccc2C)n1 | inconclusive: 20.6 µM [activator, partial curve] |
| CCOc1ccc(C(=O)COC(=O)c2cc(=O)[nH]c3ccccc23)cc1 | inconclusive: 8.2 µM [activator, partial curve, poor fit] |
| COc1ccc(CNC(=O)CN2CCC(NC(=O)c3ccc(OC)cc3)CC2)cc1 | inactive |
| O=C1CC(N2CCN(c3ccc(F)cc3)CC2)C(=O)N1Cc1ccc(N2CCCC2=O)cc1 (centres undefined) | inconclusive: 23.1 µM [inhibitor, partial curve] |
| COc1ccc(/C=N/NC(=S)Nc2ccccc2[N+](=O)[O-])cc1O | inconclusive: 3.66 µM [activator, partial curve] |
| CC(C)CC(=O)N=Nc1c(O)[nH]c2ccccc12 | inconclusive: 14.6 µM [activator, partial curve] |
| CC(C)(C)NC(=O)Nc1ccc(Br)cc1 | inconclusive: 13 µM [activator, partial curve] |
| CCc1ccc(C(=O)NNC(=O)C2CSC3(C)CCC(=O)N23)cc1 (centres undefined) | inactive |
| C/C(=N\S(=O)(=O)c1ccc(C)cc1)NC(=S)Nc1ccccc1 | inactive |
| CCCCCCn1cc(C(=O)O)c(=O)c2cc(F)c(N3CCN(C)CC3)cc21 | inactive |
| CCN(CCCNC(=O)CN(C)S(=O)(=O)c1cccc2nsnc12)c1cccc(C)c1 | inconclusive: 7.31 µM [inhibitor, partial curve, poor fit] |
| NS(=O)(=O)c1ccc2nc(NC(=O)c3ccc4c(c3)OCCO4)sc2c1 | inactive |
| Oc1oc(-c2ccccc2)nc1C=Nc1ccccc1 | inconclusive: 16.4 µM [activator, partial curve] |
| Cc1ccc(O)c(NC(=O)c2noc(C(C)C)c2[N+](=O)[O-])c1 | inconclusive: 20.6 µM [activator, partial curve] |
| COCCN1CCN(C(=O)c2ccc3oc(CCCc4ccccc4)nc3c2)CC1 | inactive |
| Cc1[nH]c2ccccc2c1C(=O)COC(=O)c1cccc(S(=O)(=O)N2CCCCC2)c1 | inconclusive: 18.4 µM [inhibitor, single point] |
| CC(C)c1nc2oc3c(N(C)CCO)ncnc3c2c2c1CCC2 | inconclusive: 29.1 µM [inhibitor, single point] |
| Cc1nc(C(=O)N/N=C/c2[nH]ncc2Br)cs1 | inconclusive: 18.3 µM [activator, single point] |
| COc1ccc(OC)c(-c2cc(-c3cccnc3)nc(N)c2C#N)c1 | inconclusive: 18.3 µM [inhibitor, partial curve, poor fit] |
| CN(C)CCCN1C(=O)c2cccc3cccc(c23)C1=O | inactive |
| CCOc1ccc(NC(=O)CN2C(=O)CSc3ccc(S(=O)(=O)N4CCCC4)cc32)cc1 | inactive |
| CCn1ncc(CNC(=O)CCSc2nc(-c3ccco3)cc(C(F)(F)F)n2)c1C | inconclusive: 25.9 µM [inhibitor, partial curve, poor fit] |
